{"source": "patent US10470445B2", "about": "“Fumarylacetoacetate hydrolase (Fah)-deficient and immunodeficient rats and uses thereof” (YECURIS CORPORATION, priority 2011, dated 2019)", "test_system": "Fah-deficient rats (SS-Fah-m1, SS-Fah-m2, SD-Fah-m3)", "test": "NTBC rescue of embryonic lethality and liver/kidney injury in Fah mutant rats", "format": "in vivo, rat", "note": "For at least one compound, name, drawing or mass did not settle the structure.", "data": [{"compound": "O=C1CCCC(=O)C1C(=O)c1ccc(C(F)(F)F)cc1[N+](=O)[O-]", "note": "[NTBC, 2-(2-nitro-4-trifluoro-methyl-benzoyl)-1,3 cyclohexanedione]", "values": [{"measurement": "health and fertility of null animals", "setting": "SS-Fah-m1 null animals maintained on NTBC in their drinking water", "value": "healthy and are reproductively fit"}, {"measurement": "necrotic hepatocytes in fixed liver tissue, trichrome staining", "setting": "control NTBC-treated littermate versus SS-Fah-m1 animal after NTBC withdrawal, FIG. 14", "value": "none were seen"}]}]}
